Measured values from article PMC12029333.
These are yes or no findings as the source states them, for the method shown. Binding seen in cells or lysates may run through a third protein. These calls come from enrichment with a bait or labelling near it, and not all partners need be listed. Tags and fused reporters may be left off the sequences shown.

B1: Putative DNA recombinase (protein, UniProt P17867 1-500)
chain: MIAIYVRVSTEEQAIKGSSIDSQIEACIKKAGTKDVLKYADEGFSGELLERPALNRLREDASKGLISQVICYDPDRLSRKLMNQLIIDDELRKRNIPLIFVNGEYANSPEGQLFFAMRGAISEFEKAKIKERTSSGRLQKMKKGMIIKDSKLYGYKFVKEKRTLEILEEEAKIIRMIFNYFTDHKSPFFGRVNGIALHLTQMGVKTKKGAKVWHRQVVRQILMNSSYKGEHRQYKYDTEGSYVSKQAGNKSIIKIRPEEEQITVTIPAIVPAEQWDYAQELLGQSKRKHLSISPHNYLLSGLVRCGKCGNTMTGKKRKSHGKDYYVYTCRKNYSGAKDRGCGKEMSENKLNRHVWGEIFKFITNPQKYVSFKEAEQSNHLSDELELIEKEIEKTKKGRKRLLTLISLSDDDDLDIDEIKAQIIELQKKQNQLTEKCNEIQSKMKVLDDTSSSENALKRAIDYFQSIGADNLTLEDKKTIVNFIVKEVTIVDSDTIYIETY
B2: Stage V sporulation protein AD (protein, UniProt P40869 1-338)
chain: MKLTGKQTWVFEHPIFVNSAGTAAGPKEKDGPLGSLFDKTYDEMHCNQKSWEMAERQLMEDAVNVALQKNNLTKDDIDLLLAGDLLNQNVTANYVARHLKIPFLCMFGACSTSMETVAVASALVDGGFAKRALAATSSHNATAERQFRYPTEYGGQKPDTATSTVTGSGAVVISQTPGDIQITSATVGKVSDLGITDPFDMGSAMAPAAADTIKQHFKDLNRTADDYDLILTGDLSGVGSPIVKDILKEDGYPVGTKHDDCGLLIYTPDQQVFAGGSGCACSAVVTYSHIFKQLREGKLNRVFVVATGALLSPTMIQQKETIPTIAHGVVFERAGGAS
B3: Spore coat polysaccharide biosynthesis protein SpsG (protein, UniProt P39627 1-339)
chain: MHVGIFADGGYEKGMGHVVRMKRLAEGLKQRCLITFYTNQDSEAFLHEEHWQVIVKPELQQHEFILREIKSKKLDLLLFDILGAPAELLKKIKTETDAKIVLFEEKNGKSIQYSDAVINGIYGDIRSRVYVQGNTRIYEGPDYLILHPAFQAAREDYTLKKDCRNILVALGGSDPKQLIFKVLAAADQVPDIKDKNMMFVMGSASPHQEAVRRRIEKKPQYKMIEQTNDMAGLMKQADAAIVAGGISLYEAICIGVPCLVLSQVEHQTATAKTFADQGAALDLGLGELVPDETLIYQMSRIMSSYPLRLSLHKGGRPLVDGKGIIRVTAILQDLYEQEI
B4: Putative aliphatic sulfonates transport permease protein SsuC (protein, UniProt P40401 1-276)
chain: MMKAEAAGSLPKTNAEAVRKKPGRKRYGWMKGLLLPAVIIAIWQVIGGLGVVSATVLPTPVTIVLTFKELILSGELFGHLQISIYRAALGFLLGAGLGLMIGILAGFSKRTELYLDPSLQMLRTVPHLAVTPLFILWFGFDEVSKILLIALGAFFPVYINTFNGIRGVDAKLFEVARVLEFKWHQQISKVILPAALPNILLGIRLSLGIAWLGLVVAELMGSSSGVGYMIMDARQFSQTNKVFAGIIIFAVVGKLTDSFVRLLERKLLKWRNSYEG
B5: Iron-sulfur cluster assembly protein SufD (protein, UniProt O32165 1-437)
chain: MTLGTKLSVDQEYLKSFSEKHQEPAWLKNLRLQALEQAEDLPMPKPDKTKITNWNFTNFAKHTVDNEPLSSLEDLTDEVKALIDIENEDKTLYVQRDQTPAHLSLSQELKDKGVIFTDILTAAREHSDLVEKYFMKDGVKVDEHKLTALHAALVNGGAFLYVPKNVQVETPVQAVYVHESNDTALFNHVLIVAEDHSSVTYVENYISTVNPKDAVFNIISEVITGDNASVTYGAVDNLSSGVTTYVNRRGAARGRDSKIEWALGLMNDGDTISENTTNLYGDGTYGDTKTVVVGRGEQTENFTTQIIHFGKASEGYILKHGVMKDSASSIFNGIGKIEHGASKANAEQESRVLMLSEKARGDANPILLIDEDDVTAGHAASVGRVDPIQLYYLMSRGIPKEEAERLVIYGFLAPVVNELPIEGVKKQLVSVIERKVK
B6: Phage-like element PBSX protein XkdO (protein, UniProt P54334 1-1332)
chain: MAKLTARFDLEDKVSKKLKRIHKGFQEVEKKVKTINRQIKISIRAEDQAFYRLRKINDYIILKFAKSLEIKVVLDDQVTSKLDAIERKLKRLPKETKLTVSLVDRTAAAYKKIKKMLSNQKLSFLLIPDDKVTSTVKRIIGYIKKNLKNGYTVKLKVIDEITKTVNRLTALLRKFEKTYYVKVVVKTKISDKINKKESLINKETSKKESDKSSDKGSDKNSDQKPGWVGKIKGWLKDWWTKSAWPWIKDTLNEIGKAFLDRFKERLIEKLKNDVFDKIIDKILGPQKKDDSGENSDTDKKVLNRNTGGNCCCDCCEGGISPGTKNKKTYRKKKSPTKAPNRTLKVPGEVIRRRQSGTPAESAPRTSGSKLKNWLGGLKSLGKDSSKLGKAFRGMGKAVPYVGSALAVFDLAGINKDNAGEKVGSIGGRIAGAEAGATAGAEAGATIGSFVGPEGTAIGGAIGGIGGGLVGGIGGEEAGKNIGKMFDTSKLKESISNSLFNKEWWSGKWNSISDTANGAITWIEDTWSKVSTWFDQYVFTPIYNVAVPVINFIVGLFAYAWDGILAVWNIVYPWFKDNVWDPISGAVTNVATTIWTGLCNAWTVISGIWSTVSTWFMDNVWNPVSEAVTTAATWIWSKINDAWTIISNIWTGVSNWFYDNVWNPIVKKVEDIKTSIKEKFDDARKFFEDAWDGIETWFNEHVKDPLVKVSEKIAEKFQWLFDLKDSVGGFVAKVIHRGEEVTHLKKKPIKKDSKEKKTSSKPTTNNIFAQSPSNNNMTVFQQALDQNATGGYITKPTISWIGEAGKEFVIPVDNNRGRGKMLLSQAASKLGMQVVDDMGAASSSGGSPASVSGGAAVSPLSGTASPVMNTANLTGQASTLGQQFSEGFGKGISDQPVKMEDWKKKNINTPFTQMISASPNYGKQMVSGYAKGQSGTATGTDGFLQSKVKTPFQATVSKSSSWGTGTVKGFAQGQNSTQTGTAQYVSTHVDKPFLRSKDTSNSWGSGLIGNFVTGMNSKSSEVKQAAKDMAKRVEQAFREELDIHSPSRVMMSLGRFASVGVVKGLDSVDVKKYAEKQAGSLAAAYSGMGAVGGNVKQWLMAAIMATKTPLSWLSGLMTIAQYESGGNPNSINLWDSNAKAGNPSQGLMQTVPTTFNAHKAPGMGNIRNPIHNAAAAIGYIKSRYGSIDNVPGIKSLKRGGPYVGYANGGLITKEQIARVGEGNKREWIIPEERGIRGRYLLQRAAQALGMEVTDPSQSQQSELSSGQVSAVTSASRPTAAVSGSKEIYIQFNGDQHFHNGQDAESLAAKIKQALIDELQKDINIGTKGVVAFD
B7: RQC P-site tRNA stabilizing factor (protein, UniProt P37557 1-86)
chain: MRLDKFLKVSRLIKRRTLAKEVADQGRISINGNQAKASSDVKPGDELTVRFGQKLVTVQVNELKDTTKKEEAANMYTILKEEKLGE
B8: Uncharacterized protein YcdC (protein, UniProt O34772 1-453)
chain: MVNKQLKKKAQEIGNVPTHYELEIEDYDQKQKKYGQAYFIWKDPKDPEKHITVELRNDGALLTFSTTVHSETDKKLPDAELKLTALQFAAANHPGTFMNFHFQGKEERGQHIRFVYTKMELGLPIPNSGFLIDMTRSGQIVHFLYYGEGHKAEVPTEFVAKEKVVSHYLNTMSFELMYDVIDGEQEPRLVYEPILPGYSYPADVDEIVPDQHIADERIENTAPLPPLQNKEEVDIFALLGFTSDMQKVSERDFGEQIGSTWRRGAAPERKDLSIGSYFETRNKNTIKMKTDKRTGKLKAALSFMDWRNNLQCSTEECQEIALQFLYALYPRAAEFFRVNPVRIDERGRVRNHFSVWYKGVPLRFGAARIIVNPETGLIDAFMAPDIEPEQLEAINHRPDVSAEEAKEAFLAAFDVKLEWQPDFTAGSDQHCKLVYKPVYPSYIDAHIRKKKRL
B9: 3-dehydroquinate dehydratase (protein, UniProt P35146 1-255)
chain: MNVLTIKGVSIGEGMPKIIIPLMGKTEKQILNEAEAVKLLNPDIVEWRVDVFEKANDREAVTKLISKLRKSLEDKLFLFTFRTHKEGGSMEMDESSYLALLESAIQTKDIDLIDIELFSGDANVKALVSLAEENNVYVVMSNHDFEKTPVKDEIISRLRKMQDLGAHIPKMAVMPNDTGDLLTLLDATYTMKTIYADRPIITMSMAATGLISRLSGEVFGSACTFGAGEEASAPGQIPVSELRSVLDILHKNTRG
B10: Uncharacterized ABC transporter ATP-binding protein YdbJ (protein, UniProt P96605 1-308)
chain: MAEPILHIEGLDKKIGSKQILKQISMDVMEGEIIGLLGPNGSGKTTLIRIIVGLLKQNSGSVTISGFQHDTEFEKAMEAVGAIVENPEFYPYLTGWENLKHFANMHKKIADERLDEVVERVGLTSAIHDKVKTYSLGMRQRLGIAQAILHRPKLLILDEPTNGLDPAGMKDFRDHIKELAEMEGTAVLFATHLLREVEDLCDRVIIIQKGEIKAEVSLQGTDQTTEKAIIEVQPQEKALNWLTGNQYQAESQDGTIVVEVAKENIPELNRSLVGQDLNVFSITPYTQSLEDEFIKATTAHQEEGEELV
B11: Uncharacterized protein YfjB (protein, UniProt O31557 1-407)
chain: MSGNIAVDPDKLEQLANDVVTELTDMENKYKDLHVELGQMILQCDPRYSSCFSGVGDAWSSGKALVTKLSDNEIFIRKTGDKFVEQDDILRKLYNAYDKYGTMTSLTALMLTQGKYYGLGLTKFVKQPSGLHTAQHSKLLLDISRAVDSSRYQKAARVLLNPKYLLKKTNRPFSDLVHKKFTKYFPQDTVDFSNSVRSYTKGFLNEAGVRSTLKDVGKTGLRFAKGNAITATLITGATETFGAGVKIAENYAKYQDKPEVLKRENAKAVGNAVNNTIFVAGGATAGAVIGGAIGSFAGPVGTVLLGAAGSYIGGVVGEQIAKYTAGFAEKAALKLKEPIHAVVDTAKKGLESAGKVVKSVNDGIDAANKSIHKGIDSAKKGMEKAKKTADSLIHGATHFLKGKFSFG
B12: Spore coat protein F-like protein YhcQ (protein, UniProt P54601 1-217)
chain: MDQFNQQQQSQMNKGIPGKPHKNHGGHEMFDMHEVLSGTLTVLDQFMMLRQFCKDQELLNILDRQHQFITSQYNITAECFKTGSEPSQKTATYMMKEDNQTVYGMQPSQPKKPVQSMNDIDDSIISRQMLCAIKAQASMLTMASLEMTNPAVRRVLSAQIQEYVEMAFEIFLYQNKHGYYQVPQLDAQDMEQLRNSFAPAQGQMPPTQGGMGQQGLH

Target: T1, GST-PrkC (Serine/threonine-protein kinase PrkC) (Bacillus subtilis str. 168) (UniProt O34507)
T1 sequence: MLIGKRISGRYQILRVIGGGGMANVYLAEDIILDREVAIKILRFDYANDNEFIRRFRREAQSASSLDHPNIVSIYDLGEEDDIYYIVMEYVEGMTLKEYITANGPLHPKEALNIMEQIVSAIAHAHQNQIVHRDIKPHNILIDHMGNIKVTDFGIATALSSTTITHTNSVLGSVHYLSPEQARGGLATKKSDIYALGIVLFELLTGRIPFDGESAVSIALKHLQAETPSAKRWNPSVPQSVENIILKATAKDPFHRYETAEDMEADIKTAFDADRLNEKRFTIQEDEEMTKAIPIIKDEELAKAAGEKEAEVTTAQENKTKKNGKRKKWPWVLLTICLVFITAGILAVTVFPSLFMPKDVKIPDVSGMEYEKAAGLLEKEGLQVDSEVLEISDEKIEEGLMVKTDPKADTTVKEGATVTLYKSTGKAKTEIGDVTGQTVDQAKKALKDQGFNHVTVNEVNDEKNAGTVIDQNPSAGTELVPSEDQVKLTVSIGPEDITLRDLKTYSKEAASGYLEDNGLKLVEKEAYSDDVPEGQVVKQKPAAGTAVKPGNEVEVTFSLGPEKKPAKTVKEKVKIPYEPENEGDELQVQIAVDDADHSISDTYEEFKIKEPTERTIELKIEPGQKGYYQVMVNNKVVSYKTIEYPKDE
Experiment: affinity purification with mass spectrometry; GST-PrkC on glutathione resin incubated with B. subtilis spore lysate at 4 °C; resin washed; bound proteins eluted with 20 mM reduced glutathione; eluate digested with trypsin and analysed by LC-MS/MS; hits filtered at 1% FDR, >=2 unique peptides; only the target purified

Binder	binding
B1	binds
B2	binds
B3	binds
B4	binds
B5	binds
B6	binds
B7	binds
B8	binds
B9	binds
B10	binds
B11	binds
B12	binds
